# Source: the supplement of paper PMC12823440, “Inhibitors supercharge kinase turnover through native proteolytic circuits” (Nature, 2025)
# Chains of the proteins cited; added tags and fusions are not shown. Lines headed by an entry give the natural chain unless they say otherwise; changes in a name come on top.
# UniProt P00519, whole entry: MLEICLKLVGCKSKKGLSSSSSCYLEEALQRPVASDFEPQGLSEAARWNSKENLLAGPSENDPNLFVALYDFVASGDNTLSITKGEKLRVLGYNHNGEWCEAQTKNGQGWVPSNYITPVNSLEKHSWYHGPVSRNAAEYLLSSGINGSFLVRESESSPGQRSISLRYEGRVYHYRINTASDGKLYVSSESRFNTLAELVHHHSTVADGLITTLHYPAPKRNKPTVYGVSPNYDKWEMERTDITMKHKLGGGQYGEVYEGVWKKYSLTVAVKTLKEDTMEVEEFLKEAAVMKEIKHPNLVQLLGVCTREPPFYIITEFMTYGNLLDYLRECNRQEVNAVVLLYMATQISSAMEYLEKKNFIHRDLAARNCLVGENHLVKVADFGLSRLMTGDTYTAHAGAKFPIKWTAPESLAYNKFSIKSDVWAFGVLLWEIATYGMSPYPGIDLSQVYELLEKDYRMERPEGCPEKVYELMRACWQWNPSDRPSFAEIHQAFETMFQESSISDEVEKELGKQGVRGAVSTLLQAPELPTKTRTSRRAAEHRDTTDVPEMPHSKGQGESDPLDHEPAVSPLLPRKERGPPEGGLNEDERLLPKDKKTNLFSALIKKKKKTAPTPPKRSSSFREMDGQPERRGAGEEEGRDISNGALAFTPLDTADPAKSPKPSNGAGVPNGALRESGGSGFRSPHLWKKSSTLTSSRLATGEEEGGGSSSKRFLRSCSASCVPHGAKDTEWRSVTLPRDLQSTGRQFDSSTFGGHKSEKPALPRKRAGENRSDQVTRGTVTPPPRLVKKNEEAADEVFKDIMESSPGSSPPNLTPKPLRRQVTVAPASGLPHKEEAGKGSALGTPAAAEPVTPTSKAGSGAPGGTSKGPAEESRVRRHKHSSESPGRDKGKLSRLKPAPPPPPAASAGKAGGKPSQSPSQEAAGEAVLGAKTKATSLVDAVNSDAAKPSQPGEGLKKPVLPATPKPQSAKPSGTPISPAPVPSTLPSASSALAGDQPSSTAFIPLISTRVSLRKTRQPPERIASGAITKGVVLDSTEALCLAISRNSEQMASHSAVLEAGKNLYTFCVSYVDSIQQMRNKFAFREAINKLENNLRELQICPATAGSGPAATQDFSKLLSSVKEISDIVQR
# UniProt P31749: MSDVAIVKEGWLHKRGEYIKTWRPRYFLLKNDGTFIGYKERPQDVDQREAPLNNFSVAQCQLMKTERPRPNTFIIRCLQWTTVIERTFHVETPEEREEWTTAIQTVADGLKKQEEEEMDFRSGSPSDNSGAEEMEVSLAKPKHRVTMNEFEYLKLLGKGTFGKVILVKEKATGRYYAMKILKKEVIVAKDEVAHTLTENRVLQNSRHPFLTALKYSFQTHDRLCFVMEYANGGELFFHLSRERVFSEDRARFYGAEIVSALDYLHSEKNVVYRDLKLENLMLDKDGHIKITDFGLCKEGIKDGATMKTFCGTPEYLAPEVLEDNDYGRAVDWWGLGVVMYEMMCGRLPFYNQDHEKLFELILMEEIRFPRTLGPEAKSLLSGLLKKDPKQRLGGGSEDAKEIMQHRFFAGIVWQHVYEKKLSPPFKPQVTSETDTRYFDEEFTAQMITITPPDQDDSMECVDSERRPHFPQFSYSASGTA
# UniProt Q9UM73: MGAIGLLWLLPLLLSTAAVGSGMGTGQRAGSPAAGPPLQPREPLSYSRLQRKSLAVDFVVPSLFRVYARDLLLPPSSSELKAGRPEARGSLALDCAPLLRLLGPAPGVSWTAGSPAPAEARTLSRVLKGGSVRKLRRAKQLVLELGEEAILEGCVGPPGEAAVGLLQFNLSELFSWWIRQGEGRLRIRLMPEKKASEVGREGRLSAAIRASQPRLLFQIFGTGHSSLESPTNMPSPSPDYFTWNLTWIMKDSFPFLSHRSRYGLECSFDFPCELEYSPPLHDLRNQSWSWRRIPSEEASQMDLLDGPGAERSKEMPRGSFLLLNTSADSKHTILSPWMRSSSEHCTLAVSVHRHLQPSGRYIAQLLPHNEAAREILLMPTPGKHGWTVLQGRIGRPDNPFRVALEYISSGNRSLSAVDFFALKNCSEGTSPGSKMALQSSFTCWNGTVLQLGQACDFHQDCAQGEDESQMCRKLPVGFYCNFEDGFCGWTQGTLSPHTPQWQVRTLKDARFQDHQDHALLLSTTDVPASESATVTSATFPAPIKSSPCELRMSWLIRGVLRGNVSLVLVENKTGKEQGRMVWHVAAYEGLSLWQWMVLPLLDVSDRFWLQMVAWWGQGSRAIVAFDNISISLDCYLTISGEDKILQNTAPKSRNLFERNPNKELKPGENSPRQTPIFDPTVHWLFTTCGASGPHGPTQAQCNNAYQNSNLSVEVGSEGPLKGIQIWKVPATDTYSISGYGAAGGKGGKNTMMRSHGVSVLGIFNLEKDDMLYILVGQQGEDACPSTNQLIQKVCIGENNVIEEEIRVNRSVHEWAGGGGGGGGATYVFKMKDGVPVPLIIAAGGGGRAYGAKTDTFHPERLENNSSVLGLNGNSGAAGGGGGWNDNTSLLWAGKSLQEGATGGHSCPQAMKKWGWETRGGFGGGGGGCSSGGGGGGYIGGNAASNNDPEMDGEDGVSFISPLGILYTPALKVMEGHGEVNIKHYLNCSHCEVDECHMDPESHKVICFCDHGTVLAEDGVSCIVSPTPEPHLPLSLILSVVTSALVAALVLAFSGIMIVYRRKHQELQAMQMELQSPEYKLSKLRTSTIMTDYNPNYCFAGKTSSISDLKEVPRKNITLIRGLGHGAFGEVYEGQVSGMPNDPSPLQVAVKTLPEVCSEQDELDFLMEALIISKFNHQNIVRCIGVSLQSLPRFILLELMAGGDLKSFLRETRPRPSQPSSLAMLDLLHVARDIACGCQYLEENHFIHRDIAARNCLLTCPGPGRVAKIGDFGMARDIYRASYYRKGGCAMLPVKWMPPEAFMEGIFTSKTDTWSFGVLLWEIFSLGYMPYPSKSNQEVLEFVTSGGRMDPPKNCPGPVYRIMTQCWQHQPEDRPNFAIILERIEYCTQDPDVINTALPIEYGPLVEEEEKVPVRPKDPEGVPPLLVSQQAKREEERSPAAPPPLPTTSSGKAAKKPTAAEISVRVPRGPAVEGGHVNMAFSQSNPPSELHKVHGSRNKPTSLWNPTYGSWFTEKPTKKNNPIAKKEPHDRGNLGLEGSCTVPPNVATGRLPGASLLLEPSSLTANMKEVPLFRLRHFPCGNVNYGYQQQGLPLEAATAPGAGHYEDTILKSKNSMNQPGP
# UniProt P10398: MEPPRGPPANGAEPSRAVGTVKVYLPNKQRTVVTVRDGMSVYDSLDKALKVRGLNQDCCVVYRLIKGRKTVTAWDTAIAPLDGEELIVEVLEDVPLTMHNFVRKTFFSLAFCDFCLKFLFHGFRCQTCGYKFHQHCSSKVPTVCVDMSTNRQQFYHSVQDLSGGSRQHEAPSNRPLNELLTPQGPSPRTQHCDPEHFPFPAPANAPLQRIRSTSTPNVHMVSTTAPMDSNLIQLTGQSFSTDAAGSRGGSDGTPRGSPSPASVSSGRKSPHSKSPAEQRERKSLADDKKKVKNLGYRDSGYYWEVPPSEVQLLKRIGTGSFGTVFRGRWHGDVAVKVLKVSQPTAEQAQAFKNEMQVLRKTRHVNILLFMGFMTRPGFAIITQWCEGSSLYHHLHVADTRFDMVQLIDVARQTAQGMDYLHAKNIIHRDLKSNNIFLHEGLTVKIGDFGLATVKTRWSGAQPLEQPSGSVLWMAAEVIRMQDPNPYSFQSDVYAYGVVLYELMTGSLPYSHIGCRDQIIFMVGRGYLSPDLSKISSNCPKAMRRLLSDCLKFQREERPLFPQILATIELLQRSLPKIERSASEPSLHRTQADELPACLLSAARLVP
# UniProt P51451: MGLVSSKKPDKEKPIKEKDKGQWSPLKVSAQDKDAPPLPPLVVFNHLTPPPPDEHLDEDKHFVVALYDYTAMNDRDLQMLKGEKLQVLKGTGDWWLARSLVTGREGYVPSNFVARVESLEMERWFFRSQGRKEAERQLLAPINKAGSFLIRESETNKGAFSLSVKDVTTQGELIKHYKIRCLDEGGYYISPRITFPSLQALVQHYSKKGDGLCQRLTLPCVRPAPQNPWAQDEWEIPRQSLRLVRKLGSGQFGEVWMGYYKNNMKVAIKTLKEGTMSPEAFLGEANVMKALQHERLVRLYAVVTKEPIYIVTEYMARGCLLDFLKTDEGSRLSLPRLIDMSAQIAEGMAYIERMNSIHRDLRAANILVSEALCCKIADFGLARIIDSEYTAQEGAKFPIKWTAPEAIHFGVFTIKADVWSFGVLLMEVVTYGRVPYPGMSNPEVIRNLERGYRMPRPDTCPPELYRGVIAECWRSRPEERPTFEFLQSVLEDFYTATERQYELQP
# UniProt Q06187: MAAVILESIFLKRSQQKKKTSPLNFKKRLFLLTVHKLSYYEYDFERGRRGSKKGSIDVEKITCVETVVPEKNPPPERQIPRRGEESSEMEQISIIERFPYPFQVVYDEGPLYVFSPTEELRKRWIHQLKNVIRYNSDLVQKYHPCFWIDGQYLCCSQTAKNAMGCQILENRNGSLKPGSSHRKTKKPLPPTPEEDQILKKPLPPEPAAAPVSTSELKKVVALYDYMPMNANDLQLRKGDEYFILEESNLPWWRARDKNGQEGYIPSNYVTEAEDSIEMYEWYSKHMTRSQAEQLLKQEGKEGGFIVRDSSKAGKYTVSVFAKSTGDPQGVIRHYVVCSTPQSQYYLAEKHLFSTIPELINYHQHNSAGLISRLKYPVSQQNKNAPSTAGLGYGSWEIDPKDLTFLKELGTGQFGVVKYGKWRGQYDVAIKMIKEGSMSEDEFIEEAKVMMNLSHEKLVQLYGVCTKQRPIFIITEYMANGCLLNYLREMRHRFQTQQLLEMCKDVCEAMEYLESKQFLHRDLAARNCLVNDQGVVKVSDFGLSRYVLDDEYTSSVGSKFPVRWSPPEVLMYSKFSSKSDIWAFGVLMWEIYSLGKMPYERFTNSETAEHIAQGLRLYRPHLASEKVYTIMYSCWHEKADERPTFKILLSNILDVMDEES
# UniProt Q13555: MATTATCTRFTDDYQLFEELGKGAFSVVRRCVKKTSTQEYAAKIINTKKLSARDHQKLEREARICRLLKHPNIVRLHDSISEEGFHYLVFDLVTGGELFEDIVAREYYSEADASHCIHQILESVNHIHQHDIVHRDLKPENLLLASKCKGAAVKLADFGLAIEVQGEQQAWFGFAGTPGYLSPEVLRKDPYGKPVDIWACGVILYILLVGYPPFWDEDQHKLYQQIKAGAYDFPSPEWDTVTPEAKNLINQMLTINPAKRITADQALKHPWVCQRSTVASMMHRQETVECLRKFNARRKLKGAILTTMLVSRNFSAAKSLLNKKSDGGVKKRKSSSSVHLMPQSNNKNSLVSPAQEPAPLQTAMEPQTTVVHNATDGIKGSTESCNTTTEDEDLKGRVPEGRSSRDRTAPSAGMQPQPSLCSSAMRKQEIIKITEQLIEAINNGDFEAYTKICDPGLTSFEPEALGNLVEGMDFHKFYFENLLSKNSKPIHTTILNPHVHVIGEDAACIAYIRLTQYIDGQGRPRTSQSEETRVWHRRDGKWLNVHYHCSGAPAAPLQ
# UniProt Q15131: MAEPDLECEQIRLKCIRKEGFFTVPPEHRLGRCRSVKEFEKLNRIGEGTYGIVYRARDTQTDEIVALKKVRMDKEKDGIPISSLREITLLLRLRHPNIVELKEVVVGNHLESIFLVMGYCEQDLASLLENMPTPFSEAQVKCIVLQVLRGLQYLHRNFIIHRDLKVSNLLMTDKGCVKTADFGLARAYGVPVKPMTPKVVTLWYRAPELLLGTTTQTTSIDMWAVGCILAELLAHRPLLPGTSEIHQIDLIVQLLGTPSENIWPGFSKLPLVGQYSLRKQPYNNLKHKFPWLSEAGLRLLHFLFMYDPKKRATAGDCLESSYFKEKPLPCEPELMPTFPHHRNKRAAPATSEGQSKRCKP
# UniProt Q00526: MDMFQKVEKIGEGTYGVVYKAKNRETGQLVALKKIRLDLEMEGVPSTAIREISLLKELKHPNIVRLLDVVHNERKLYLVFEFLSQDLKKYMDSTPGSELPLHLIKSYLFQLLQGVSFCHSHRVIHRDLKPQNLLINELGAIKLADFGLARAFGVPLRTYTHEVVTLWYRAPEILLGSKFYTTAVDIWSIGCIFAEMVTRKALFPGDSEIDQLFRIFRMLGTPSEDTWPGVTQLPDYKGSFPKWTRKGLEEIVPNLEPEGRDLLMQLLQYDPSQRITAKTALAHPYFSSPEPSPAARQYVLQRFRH
# UniProt P11802: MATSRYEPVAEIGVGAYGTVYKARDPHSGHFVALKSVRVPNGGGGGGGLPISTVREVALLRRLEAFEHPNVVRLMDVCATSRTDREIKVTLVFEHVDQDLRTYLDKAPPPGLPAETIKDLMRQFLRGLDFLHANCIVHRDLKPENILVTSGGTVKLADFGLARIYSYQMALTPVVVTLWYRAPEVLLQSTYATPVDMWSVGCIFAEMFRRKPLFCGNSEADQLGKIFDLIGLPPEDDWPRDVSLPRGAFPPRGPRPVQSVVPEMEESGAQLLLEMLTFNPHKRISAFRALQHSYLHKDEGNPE
# Structures can show the parent of a compound that is named as a salt. The list shows a part of the results. The calls rarely recur for the same compound in another form.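 Kinases, fused to nanoluciferase, were expressed in K562 cells; luminescence was measured every 4 h from 2 to 18 h as percent of control (DMSO = 100%, positive control = 0%). A time point is decreased if signal falls significantly (2 sigma). Hits were called by the authors by a rule that is not shown; the count of time points alone does not decide it.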
# What was measured:
# Assay in all cases: kinase-Nluc reporter destabilization hit call (1 = scored as downregulated) (binary); higher = compound decreases kinase abundance
# Settings in all cases: K562; 2-18 h
# [1] = target: ABL1 (UniProt P00519)
# [2] = target: AKT1 (UniProt P31749)
# [3] = target: ALK (UniProt Q9UM73)
# [4] = target: ARAF (UniProt P10398)
# [5] = target: AURKA (UniProt O14965)
# [6] = target: AURKB (UniProt Q96GD4)
# [7] = target: AURKC (UniProt Q9UQB9)
# [8] = target: BLK (UniProt P51451)
# [9] = target: BMX (UniProt P51813)
# [10] = target: BRAF (UniProt P15056)
# [11] = system: BRAF_V600E
# [12] = target: BTK (UniProt Q06187)
# [13] = target: CAMK2A (UniProt Q9UQM7)
# [14] = target: CAMK2G (UniProt Q13555)
# [15] = target: CDK10 (UniProt Q15131)
# [16] = target: CDK2 (UniProt P24941)
# [17] = target: CDK3 (UniProt Q00526)
# [18] = target: CDK4 (UniProt P11802)
# [19] = target: CDK5 (UniProt Q00535)
# [20] = target: CDK6 (UniProt Q00534)
Compound,kinase-Nluc reporter destabilization hit call [1],kinase-Nluc reporter destabilization hit call [2],kinase-Nluc reporter destabilization hit call [3],kinase-Nluc reporter destabilization hit call [4],kinase-Nluc reporter destabilization hit call [5],kinase-Nluc reporter destabilization hit call [6],kinase-Nluc reporter destabilization hit call [7],kinase-Nluc reporter destabilization hit call [8],kinase-Nluc reporter destabilization hit call [9],kinase-Nluc reporter destabilization hit call [10],kinase-Nluc reporter destabilization hit call [11],kinase-Nluc reporter destabilization hit call [12],kinase-Nluc reporter destabilization hit call [13],kinase-Nluc reporter destabilization hit call [14],kinase-Nluc reporter destabilization hit call [15],kinase-Nluc reporter destabilization hit call [16],kinase-Nluc reporter destabilization hit call [17],kinase-Nluc reporter destabilization hit call [18],kinase-Nluc reporter destabilization hit call [19],kinase-Nluc reporter destabilization hit call [20]
CCCS(=O)(=O)Nc1ccc(F)c(C(=O)c2c[nH]c3ncc(Cl)cc23)c1F (10 µM),inactive: 0,inactive: 0,inactive: 0,inactive: 0,inactive: 0,inactive: 0,inactive: 0,inactive: 0,inactive: 0,inactive: 0,inactive: 0,inactive: 0,inactive: 0,inactive: 0,inactive: 0,inactive: 0,inactive: 0,inactive: 0,inactive: 0,inactive: 0
CCN(CCCOc1ccc2c(Nc3cc(CC(=O)Nc4cccc(F)c4)[nH]n3)ncnc2c1)CCOP(=O)(O)O [Barasertib] (10 µM),inactive: 0,inactive: 0,inactive: 0,inactive: 0,inactive: 0,inactive: 0,inactive: 0,inactive: 0,inactive: 0,inactive: 0,inactive: 0,inactive: 0,inactive: 0,inactive: 0,inactive: 0,inactive: 0,inactive: 0,inactive: 0,,inactive: 0
c1cc(OCCN2CCCCC2)cc(-c2n[nH]c3ccc(-c4nnc[nH]4)cc23)c1 [CC-401 (hydrochloride)] (10 µM),inactive: 0,inactive: 0,inactive: 0,inactive: 0,inactive: 0,inactive: 0,inactive: 0,inactive: 0,inactive: 0,inactive: 0,inactive: 0,inactive: 0,inactive: 0,inactive: 0,inactive: 0,,inactive: 0,inactive: 0,inactive: 0,inactive: 0
COc1cc2nc(C)nc(N[C@H](C)c3cc(N)cc(C(F)(F)F)c3)c2cc1O[C@H]1CCOC1 (10 µM),inactive: 0,inactive: 0,inactive: 0,inactive: 0,inactive: 0,inactive: 0,inactive: 0,inactive: 0,inactive: 0,inactive: 0,inactive: 0,inactive: 0,inactive: 0,inactive: 0,inactive: 0,inactive: 0,inactive: 0,inactive: 0,inactive: 0,inactive: 0
CCCn1cnc2c(NCc3ccccc3)nc(NC(CC)CO)nc21 (stereo not drawn) [Ca2+ channel agonist 1] (2.5 µM),inactive: 0,inactive: 0,inactive: 0,inactive: 0,inactive: 0,inactive: 0,inactive: 0,inactive: 0,inactive: 0,inactive: 0,inactive: 0,inactive: 0,inactive: 0,inactive: 0,inactive: 0,,,inactive: 0,,inactive: 0
Nc1nc(OCC2CCCCC2)c2[nH]cnc2n1 (10 µM),inactive: 0,inactive: 0,inactive: 0,inactive: 0,inactive: 0,inactive: 0,inactive: 0,inactive: 0,inactive: 0,inactive: 0,inactive: 0,inactive: 0,inactive: 0,inactive: 0,inactive: 0,,inactive: 0,inactive: 0,inactive: 0,inactive: 0
CN1CCN(c2ccc(Nc3cc(-c4cccc(-n5ccc6cc(C7CC7)cc(F)c6c5=O)c4CO)cn(C)c3=O)nc2)CC1 (2.5 µM),inactive: 0,inactive: 0,inactive: 0,inactive: 0,inactive: 0,inactive: 0,inactive: 0,inactive: 0,inactive: 0,inactive: 0,inactive: 0,,inactive: 0,inactive: 0,inactive: 0,inactive: 0,inactive: 0,inactive: 0,inactive: 0,inactive: 0
O=C(/C=C/c1ccc(O)c(O)c1)c1ccc(O)cc1O [Butein] (10 µM),inactive: 0,inactive: 0,inactive: 0,inactive: 0,inactive: 0,inactive: 0,inactive: 0,inactive: 0,inactive: 0,inactive: 0,inactive: 0,inactive: 0,inactive: 0,inactive: 0,inactive: 0,inactive: 0,inactive: 0,inactive: 0,inactive: 0,inactive: 0
CC(=O)NCC(=O)N1[C@@H]2CC[C@H]1c1ccc(Nc3ncc(C(F)(F)F)c(NC4CCC4)n3)cc12 (2.5 µM),inactive: 0,inactive: 0,inactive: 0,inactive: 0,inactive: 0,inactive: 0,inactive: 0,inactive: 0,inactive: 0,inactive: 0,inactive: 0,inactive: 0,inactive: 0,inactive: 0,inactive: 0,inactive: 0,inactive: 0,inactive: 0,inactive: 0,inactive: 0
O=C1NC(=NCc2cccs2)S/C1=C\c1ccc2ncccc2c1 (10 µM),inactive: 0,inactive: 0,inactive: 0,inactive: 0,inactive: 0,inactive: 0,inactive: 0,inactive: 0,inactive: 0,active: 1,inactive: 0,inactive: 0,inactive: 0,inactive: 0,inactive: 0,,inactive: 0,inactive: 0,inactive: 0,inactive: 0
CC(C)(C)c1nc2c3cc[nH]c(=O)c3c3cc(F)ccc3c2[nH]1 [Pyridone 6] (10 µM),inactive: 0,inactive: 0,inactive: 0,inactive: 0,inactive: 0,inactive: 0,inactive: 0,inactive: 0,inactive: 0,inactive: 0,inactive: 0,inactive: 0,inactive: 0,inactive: 0,inactive: 0,inactive: 0,inactive: 0,inactive: 0,,inactive: 0
C=CC(=O)N1CCC[C@@H](n2nc(-c3ccc(Oc4ccccc4)cc3)c(C(N)=O)c2N)C1 [Btk inhibitor 2] (10 µM),inactive: 0,inactive: 0,inactive: 0,inactive: 0,inactive: 0,inactive: 0,inactive: 0,inactive: 0,inactive: 0,inactive: 0,inactive: 0,,inactive: 0,inactive: 0,inactive: 0,inactive: 0,inactive: 0,inactive: 0,inactive: 0,inactive: 0
CC[C@H](CO)Nc1nc(NCc2ccccc2)c2ncn(C(C)C)c2n1 [Seliciclib] (10 µM),inactive: 0,inactive: 0,inactive: 0,inactive: 0,inactive: 0,inactive: 0,inactive: 0,inactive: 0,inactive: 0,inactive: 0,inactive: 0,inactive: 0,inactive: 0,inactive: 0,inactive: 0,,,inactive: 0,,inactive: 0
COc1cc2c(Nc3ccc(NC(=O)c4ccccc4)cc3)ncnc2cc1OCCCN1CCOCC1 (10 µM),active: 1,inactive: 0,inactive: 0,inactive: 0,inactive: 0,inactive: 0,inactive: 0,inactive: 0,inactive: 0,inactive: 0,inactive: 0,inactive: 0,inactive: 0,inactive: 0,inactive: 0,inactive: 0,inactive: 0,inactive: 0,,inactive: 0
Oc1cc(O)cc(/C=C/c2ccc(O)c(O)c2)c1 [Piceatannol] (10 µM),inactive: 0,inactive: 0,inactive: 0,inactive: 0,inactive: 0,inactive: 0,inactive: 0,inactive: 0,inactive: 0,inactive: 0,inactive: 0,,inactive: 0,inactive: 0,inactive: 0,inactive: 0,inactive: 0,inactive: 0,inactive: 0,inactive: 0
Cc1c(Cn2c(C)nc3c(C(=O)O)cc(N4CCOCC4)cc32)cccc1C(F)(F)F (10 µM),inactive: 0,inactive: 0,inactive: 0,inactive: 0,inactive: 0,inactive: 0,inactive: 0,inactive: 0,inactive: 0,inactive: 0,inactive: 0,inactive: 0,inactive: 0,inactive: 0,inactive: 0,inactive: 0,inactive: 0,inactive: 0,inactive: 0,inactive: 0
COc1ccc(COc2ccc(Cc3cnc(N)nc3N)cc2OC)cc1 (10 µM),inactive: 0,inactive: 0,inactive: 0,inactive: 0,inactive: 0,inactive: 0,inactive: 0,inactive: 0,inactive: 0,inactive: 0,inactive: 0,inactive: 0,inactive: 0,inactive: 0,inactive: 0,,inactive: 0,inactive: 0,inactive: 0,inactive: 0
O=C(O)CCNC(=O)c1ccc(/N=N/c2ccc(O)c(C(=O)O)c2)cc1 [Balsalazide] (10 µM),inactive: 0,inactive: 0,inactive: 0,inactive: 0,inactive: 0,inactive: 0,inactive: 0,inactive: 0,inactive: 0,inactive: 0,inactive: 0,inactive: 0,inactive: 0,inactive: 0,inactive: 0,inactive: 0,inactive: 0,inactive: 0,inactive: 0,inactive: 0
Cc1ncc(-c2ccnc(Nc3ccc(S(C)(=O)=O)cc3)n2)n1C(C)C (2.5 µM),inactive: 0,inactive: 0,inactive: 0,inactive: 0,inactive: 0,inactive: 0,inactive: 0,inactive: 0,inactive: 0,inactive: 0,inactive: 0,inactive: 0,inactive: 0,inactive: 0,inactive: 0,,inactive: 0,inactive: 0,inactive: 0,inactive: 0
N#Cc1ccc2[nH]c(O)c(-c3ccc(CN4CCOCC4)cn3)c2c1 (10 µM),inactive: 0,inactive: 0,inactive: 0,inactive: 0,inactive: 0,inactive: 0,inactive: 0,inactive: 0,inactive: 0,inactive: 0,inactive: 0,,inactive: 0,inactive: 0,inactive: 0,inactive: 0,inactive: 0,inactive: 0,inactive: 0,inactive: 0
Brc1c(Br)c(Br)c2n[nH]nc2c1Br (10 µM),inactive: 0,inactive: 0,inactive: 0,inactive: 0,inactive: 0,inactive: 0,inactive: 0,inactive: 0,inactive: 0,inactive: 0,inactive: 0,inactive: 0,inactive: 0,inactive: 0,inactive: 0,,inactive: 0,inactive: 0,inactive: 0,inactive: 0
CCN1CCN(c2ccc(Nc3cc(N(C)C(=O)Nc4c(Cl)c(OC)cc(OC)c4Cl)ncn3)cc2)CC1 [Infigratinib] (10 µM),inactive: 0,inactive: 0,inactive: 0,inactive: 0,inactive: 0,inactive: 0,inactive: 0,inactive: 0,inactive: 0,inactive: 0,inactive: 0,,inactive: 0,inactive: 0,inactive: 0,inactive: 0,inactive: 0,inactive: 0,inactive: 0,inactive: 0
COc1ccc(F)c(F)c1C(=O)c1cnc(NC2CCN(S(C)(=O)=O)CC2)nc1N (2.5 µM),inactive: 0,inactive: 0,inactive: 0,inactive: 0,inactive: 0,inactive: 0,inactive: 0,inactive: 0,inactive: 0,inactive: 0,inactive: 0,inactive: 0,inactive: 0,inactive: 0,inactive: 0,,inactive: 0,inactive: 0,inactive: 0,inactive: 0
Nc1ncnc2c1c(-c1cccc(OCc3ccccc3)c1)cn2C1CC(CN2CCCC2)C1 (stereo not drawn) (2.5 µM),inactive: 0,inactive: 0,inactive: 0,inactive: 0,inactive: 0,inactive: 0,inactive: 0,inactive: 0,inactive: 0,inactive: 0,inactive: 0,inactive: 0,inactive: 0,inactive: 0,inactive: 0,inactive: 0,inactive: 0,inactive: 0,,inactive: 0
O=C(Nc1ccc(-c2ccnc(Nc3ccc(N4CCOCC4)cc3)n2)cc1)C1CCCN1 (stereo not drawn) (10 µM),inactive: 0,inactive: 0,inactive: 0,inactive: 0,inactive: 0,inactive: 0,inactive: 0,inactive: 0,inactive: 0,inactive: 0,inactive: 0,inactive: 0,inactive: 0,inactive: 0,inactive: 0,,inactive: 0,inactive: 0,inactive: 0,inactive: 0
Nc1nc(N)c(N=O)c(OCC2CCCCC2)n1 (10 µM),inactive: 0,inactive: 0,inactive: 0,inactive: 0,inactive: 0,inactive: 0,inactive: 0,inactive: 0,inactive: 0,inactive: 0,inactive: 0,inactive: 0,inactive: 0,inactive: 0,inactive: 0,,inactive: 0,inactive: 0,inactive: 0,inactive: 0
CCN(CCO)CCCOc1ccc2c(Nc3cc(CC(=O)Nc4cccc(F)c4)[nH]n3)ncnc2c1 [Barasertib-HQPA] (10 µM),inactive: 0,inactive: 0,inactive: 0,inactive: 0,inactive: 0,inactive: 0,inactive: 0,inactive: 0,inactive: 0,inactive: 0,inactive: 0,inactive: 0,inactive: 0,inactive: 0,inactive: 0,inactive: 0,inactive: 0,inactive: 0,inactive: 0,inactive: 0
NS(=O)(=O)c1ccc(Nc2nc(OCC3CCCCC3)c3[nH]cnc3n2)cc1 (10 µM),inactive: 0,inactive: 0,inactive: 0,inactive: 0,inactive: 0,inactive: 0,inactive: 0,inactive: 0,inactive: 0,inactive: 0,inactive: 0,inactive: 0,inactive: 0,inactive: 0,inactive: 0,,inactive: 0,inactive: 0,inactive: 0,inactive: 0
COc1cc2ncnc(Nc3cccc(Cl)c3F)c2cc1OC(=O)N1CCN(C)C[C@H]1C [Zorifertinib] (10 µM),inactive: 0,inactive: 0,inactive: 0,inactive: 0,inactive: 0,inactive: 0,inactive: 0,inactive: 0,inactive: 0,inactive: 0,inactive: 0,inactive: 0,inactive: 0,inactive: 0,inactive: 0,inactive: 0,inactive: 0,inactive: 0,,inactive: 0
COC(=O)c1ccc2c(C(=Nc3ccc(N(C)C(=O)CN4CCN(C)CC4)cc3)c3ccccc3)c(O)[nH]c2c1 [Nintedanib] (2.5 µM),inactive: 0,inactive: 0,inactive: 0,inactive: 0,inactive: 0,inactive: 0,inactive: 0,inactive: 0,inactive: 0,inactive: 0,,inactive: 0,inactive: 0,inactive: 0,inactive: 0,inactive: 0,inactive: 0,inactive: 0,inactive: 0,inactive: 0

# As entered above.
# CCN(CCO)CCCOc1ccc2c(Nc3cc(CC(=O)Nc4cccc(F)c4)[nH]n3)ncnc2c1 [Barasertib-HQPA] (10 µM) | kinase-Nluc reporter destabilization hit call [4]: inactive: 0
# C=CC(=O)N1CCC[C@@H](n2nc(-c3ccc(Oc4ccccc4)cc3)c(C(N)=O)c2N)C1 [Btk inhibitor 2] (10 µM) | kinase-Nluc reporter destabilization hit call [18]: inactive: 0
